# Assay results taken from the supplement of paper PMC10735217.
# Some of the results follow. Repeats in this data set agree poorly, so a single value says little.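 Human kidney-derived cells stably carry a construct in which eight TEAD-binding elements drive luciferase, measured by luminescence in a drug-repurposing library screen. A hit is any compound whose signal exceeds the plate mean by more than five robust Z scores.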
# System: HEK293A TEAD-LUC reporter
# Test: TEAD-luciferase reporter activity (YAP activation), robust Z score vs plate; higher = stronger YAP/TEAD activation
# Settings: 24 h
Structure (SMILES),TEAD-luciferase reporter activity (compound concentration: 200 nM),TEAD-luciferase reporter activity (compound concentration: 2 uM),TEAD-luciferase reporter activity (compound concentration: 10 uM)
CN1C(=O)[C@H](NC(=O)Nc2cccc(-c3noc(=O)[nH]3)c2)N=C(c2ccccc2)c2ccccc21,inactive: -1.37,inactive: 0.225,inactive: 1.19
CN[C@@H]1C[C@H]2O[C@@](C)([C@@H]1OC)n1c3ccccc3c3c4c(c5c6ccccc6n2c5c31)C(=O)NC4 [Staurosporine],inactive: 4.09,inactive: -2.77,inactive: -1.89
CC(C)OC(=O)[C@H](C)N[P@](=O)(CO[C@H](C)Cn1cnc2c(N)ncnc21)Oc1ccccc1 [Tenofovir alafenamide],inactive: 0.269,,inactive: -1.56
CC(C)OC(=O)[C@H](C)N[P@](=O)(CO[C@H](C)Cn1cnc2c(N)ncnc21)Oc1ccccc1 [tenofovir alafenamide],,inactive: -2.71,
CC(=O)NC(CCN1[C@@H]2CC[C@H]1C[C@@H](n1c(C)nc3c1CN(C(=O)C(C)C)CC3)C2)c1cccc(F)c1 (stereo not given in full),inactive: 1.31,inactive: -1.19,inactive: -1.84
C[C@@]1(O)CC[C@H]2[C@H](CC[C@@H]3[C@@H]2CC[C@]2(C)[C@@H](C(=O)Cn4cc(C#N)cn4)CC[C@@H]32)C1,inactive: 0.586,,inactive: 0.299
O=[N+]([O-])OCC(CO[N+](=O)[O-])O[N+](=O)[O-] [Nitroglycerin],inactive: 0.747,inactive: -0.762,inactive: 1.32
CNC(=O)Cn1c(=O)n(C2CCN(C3Cc4cccc5cccc3c45)CC2)c2ccccc21 (stereo not given),inactive: 2.64,inactive: -0.806,inactive: -0.0396
CCCCCCC(=O)O[C@H]1CC[C@H]2[C@@H]3CCC4=CC(=O)CC[C@]4(C)[C@H]3CC[C@]12C [Testosterone enanthate],,inactive: 0.984,
CCCCCCC(=O)O[C@H]1CC[C@H]2[C@@H]3CCC4=CC(=O)CC[C@]4(C)[C@H]3CC[C@]12C [delta6-Testosterone Enanthate],inactive: -0.543,,inactive: 0.807
COC1CC(OC2CCC3(C=O)[C@H]4CCC5(C)C(C6=CC(=O)OC6)CCC5(O)[C@@H]4CCC3(O)C2)OC(C)C1O (stereo not given in full),active: 12.2,inactive: -2.04,active: 21.4
C#CC(C)(CC)OC(N)=O (stereo not given),inactive: 1.63,inactive: -1.85,inactive: 1.52
COCN1C(=O)CN=C(c2ccccc2)c2cc([N+](=O)[O-])ccc21 [Motrazepam],inactive: -0.818,inactive: -1.31,inactive: -1.38
CCc1cc2c(s1)-n1c(C)nnc1CN=C2c1ccccc1Cl [etizolam],inactive: -0.247,inactive: -0.207,inactive: 0.341
